# Measurements published in patent US20250057764A1, “COMPOSITIONS, METHODS AND SYSTEMS FOR AEROSOL DRUG DELIVERY” (ASTRAZENECA AB, priority 2021, published 2025).
# At least one compound was matched to its structure with a doubt left.
# Tests used:
# [1] = Particle size distribution by laser diffraction; format: physicochemical
# Description: When referred to herein, the term “optical diameter” indicates the size of a particle as measured by the Fraunhofer diffraction mode using a laser diffraction particle size analyzer equipped with a dry powder dispenser (e.g., Sympatec GmbH, Clasthal-Zellerfeld, Germany).
# Suspending particles were manufactured by spray drying an emulsion of PFOB (perfluorooctyl bromide) and water stabilized by DSPC (1,2-Distearoyl-sn-Glycero-3-Phosphocholine). Detailed preparation procedures have been documented previously. The particle size distribution of the suspending particles was determined by laser diffraction.
# Active agent particles formed of budesonide, 16,17-(butylidenebis(oxy))-11,21-dihydroxy-, (11-β,16-α)-pregna-1,4-diene-3,20-dione, were formed by micronizing budesonide using a jet mill. The particle size distribution of the budesonide (BD) was determined by laser diffraction.
# [2] = Aerodynamic particle size distribution by NGI after storage of the MDI (stability); format: physicochemical; settings: active in BGF-152a
# Description: (§1) In the context of a composition containing or providing respirable aggregates, particles, drops, etc., such as compositions described herein, the term “fine particle dose” or “FPD” refers to the dose, either in total mass or fraction of the nominal dose or metered dose, that is within a respirable range. The dose that is within the respirable range in measured in vitro to be the sum of the dose delivered at stages 3 through Micro Orifice Collector in a Next Generation Impactor operated at a flow rate of 30 l/min.
# (§2) In the context of a composition containing or providing respirable aggregates, particles, drops, etc., such as compositions described herein, the term “fine particle fraction” or “FPF” refers to the proportion of the delivered material relative to the delivered dose (i.e. the amount that exits the actuator of a delivery device, such as an MDI) that is within a respirable range. The amount of delivered material within the respirable range is measured in vitro as the sum of the material delivered at stages 3 through Micro Orifice Collector in a Next Generation Impactor operated at a flow rate of 30 l/min.
# The fine particle fraction (FPF) present in the delivered dose upon actuation of an MDI containing budesonide, formoterol, or glycopyrrolate active agent particles and phospholipid particles was measured following storage of the MDI under various temperature and relative humidity conditions for varied periods of time. […]
# [3] = Aerodynamic particle size distribution by NGI (FPF, FPD, MMAD) of HFC-152a co-suspension MDIs; format: physicochemical
# Description: as §1, §2
# The mixture is agitated to facilitate powder wetting and then transferred to a pressure vessel where the suspension is mixed. Valves comprised of 50 uL metering chambers (BK357, Bespak, King's Lynn, UK) are crimped onto fluorinated ethylene polymer (FEP) coated aluminum cans (Presspart, Blackburn, UK) and the suspension is then pressure filled through the valve.
# Metered dose inhalers containing a triple co-suspension composition comprising glycopyrrolate, budesonide, and formoterol active agent particles were prepared, with each type of active agent particle being provided as a micronized, crystalline API material.
# [4] = cited from earlier work
# [5] = active in BGF-152a MDI, Example 2
smiles,measurement,setting,value
"CCCC1O[C@@H]2C[C@H]3[C@@H]4CCC5=CC(=O)C=C[C@]5(C)[C@H]4[C@@H](O)C[C@]3(C)[C@]2(C(=O)CO)O1 (stereo partly drawn) [BD, 16,17-(butylidenebis(oxy))-11,21-dihydroxy-, (11-β,16-α)-pregna-1,4-diene-3,20-dione]",Optical diameter / size of 50% by volume of the particles (smaller than),[1],smaller than 1.9 μm
same,Optical diameter / size of 90% by volume of the particles (smaller than),[1],smaller than 4.3 μm
same,"FPD, <6.4 μm (μg/act)",[2]; 1 month 25° C./60% RH,65.60 ± 2.07 μg/act
same,"FPF, <6.4 μm (%)",[2]; 1 month 25° C./60% RH,44 ± 1%
same,MMAD (μm),[2]; 1 month 25° C./60% RH,3.93 ± 0.03 μm
same,"FPD, <6.4 μm (μg/act)",[2]; 1 month 40° C./75% RH,68.40 ± 2.19 μg/act
same,"FPF, <6.4 μm (%)",[2]; 1 month 40° C./75% RH,46 ± 1%
same,MMAD (μm),[2]; 1 month 40° C./75% RH,3.95 ± 0.04 μm
same,"FPD, <6.4 μm (μg/act)",[2]; 3 month 25° C./60% RH,73.40 ± 1.67 μg/act
same,"FPF, <6.4 μm (%)",[2]; 3 month 25° C./60% RH,49 ± 1%
same,MMAD (μm),[2]; 3 month 25° C./60% RH,3.82 ± 0.10 μm
same,"FPD, <6.4 μm (μg/act)",[2]; 3 month 40° C./75% RH,77.40 ± 1.82 μg/act
same,"FPF, <6.4 μm (%)",[2]; 3 month 40° C./75% RH,49 ± 1%
same,MMAD (μm),[2]; 3 month 40° C./75% RH,3.88 ± 0.02 μm
same,"FPD, <6.4 μm (μg/act)",[2]; 6 month 25° C./60% RH,74.80 ± 1.30 μg/act
same,"FPF, <6.4 μm (%)",[2]; 6 month 25° C./60% RH,49 ± 1%
same,MMAD (μm),[2]; 6 month 25° C./60% RH,3.92 ± 0.04 μm
same,"FPD, <6.4 μm (μg/act)",[2]; 6 month 40° C./75% RH,74.20 ± 6.30 μg/act
same,"FPF, <6.4 μm (%)",[2]; 6 month 40° C./75% RH,48 ± 2%
same,MMAD (μm),[2]; 6 month 40° C./75% RH,4.05 ± 0.03 μm
same,"FPD, <6.4 μm (μg/act)",[2]; 12 month 25° C./60% RH,73.20 ± 1.10 μg/act
same,"FPF, <6.4 μm (%)",[2]; 12 month 25° C./60% RH,48 ± <1%
same,MMAD (μm),[2]; 12 month 25° C./60% RH,3.89 ± 0.05 μm
same,"FPD, <6.4 μm (μg/act)",[2]; Initial,68.00 ± 3.08 μg/act
same,"FPF, <6.4 μm (%)",[2]; Initial,46 ± 2%
same,MMAD (μm),[2]; Initial,4.02 ± 0.07 μm
same,"FPD, <6.4 μm (μg/act)",[3]; active in BDA-152a MDI,24.9 ± 0.55 μg/act
same,"FPF, <6.4 μm (%)",[3]; active in BDA-152a MDI,30 ± 1%
same,MMAD (μm),[3]; active in BDA-152a MDI,4.63 ± 0.05 μm
same,"FPD, <6.4 μm (μg/act)",[3]; [5],80.92 ± 8.32 μg/act
same,"FPF, <6.4 μm (%)",[3]; [5],48 ± 3%
same,MMAD (μm),[3]; [5],3.87 ± 0.14 μm
"CC(F)F [HFC-152a, 1,1-Difluoroethane]",Dipole Moment,[4],2.30 Debye
